Some of these results come from one statement about several compounds together. For part of these data: At least one structure is not confirmed: it was looked up by name or label, or the drawing left a doubt.
What was measured:
Format in all cases: in vivo
[1] = system: Haemaphysalis longicornis; assay: Test Example 11: coated screw tube contact test, Haemaphysalis longicornis ticks; details: 2 mg per screw tube coated from acetone, non-blood-sucking nymphal ticks, after 2 days
Aphis gossypii = assay: Test Example 1: foliar spray on cucumber seedling inoculated with Aphis gossypii; details: 500 ppm active ingredient, 20 ml sprayed on cucumber seedling, Aphis gossypii (whole stage), six days after spraying
Plutella xylostella = assay: Test Example 6: sprayed cabbage foliage fed to Plutella xylostella larvae; details: 500 ppm, 20 mL/cup sprayed on cabbage, second instar larvae of Plutella xylostella, 25° C. for 5 days
[2] = system: Adoxophyes orana fasciata; assay: Test Example 7: sprayed apple tree, Adoxophyes orana fasciata larvae released; details: 500 ppm, 20 mL/cup sprayed on apple tree, first-instar Adoxophyes orana fasciata, after 7 days
Method: (§1) The formulations of Compounds of Present Invention 1 to 5, 8 to 14, 18, 19, 25, 26, 54, 55, 60, 68 to 74, 76 to 78, 85, 86, 88 and 90 and Intermediate Compounds M6-8 to M6-13 as obtained in Formulation Example 5 were diluted with water, so as to have a concentration of the active ingredient of 500 ppm, to prepare a diluted liquid for test.
On the other hand, an apple tree was planted in a plastic cup, and grown until the seventh-eighth true leaf was spread. To the apple tree was sprayed in an amount of 20 mL/cup of the diluted liquid for test. After the drug solution was dried, 60 first-instar Adoxophyes orana fasciata were released, and the plastic cup the bottom of which was cut off and on which a filter paper was put was upside-down and covered. After 7 days, the number of surviving insects was counted, and the mortality was calculated according to the following equation:
Mortality (%)=(Number of dead insects/Number of tested insects)×100.

Culex pipiens pallens = assay: Test Example 10: Culex pipiens pallens larvae in treated water; details: active ingredient concentration 3.5 ppm in water, last-instar larvae of Culex pipiens pallens, one day later
Method: as §1, with “11, 13,” for “14,”, “44, 53 to” for “54,”, “55, 59,” for “55,”, “78, 86” for “76”, “to” for “to 78, 85, 86,”, “M6-3, M6-4, M6-11, M6-12 and M6-23” for “M6-8 to M6-13”
0.7 ml of the diluted liquid for test was added to 100 ml of ion-exchanged water (active ingredient concentration: 3.5 ppm). 20 last-instar larvae of Culex pipiens pallens were released into the solution. One day later, the life and death of the Culex pipiens pallens was examined, and the mortality of the pest was calculated.

Nilaparvata lugens = assay: Test Example 3: foliar spray on rice seedling, Nilaparvata lugens larvae released; details: 500 ppm, 10 ml sprayed on rice seedling, third-fourth instar larvae of Nilaparvata lugens, after 6 days
Bemisia tabaci = assay: Test Example 5: spray on tomato seedling with Bemisia tabaci instar larvae; details: 500 ppm, 20 ml/cup sprayed on tomato seedling, after 7 days

In the case of `CCS(=O)(=O)c1cc(C(F)(F)F)ccc1C(=O)N(C)c1ccc(C2CCCCC2)cc1` [compound 84], the mortality [1] is reported as 100%.
In the case of `CCS(=O)(=O)c1cc(C(F)(F)F)ccc1C(=O)N(C)c1ccc(F)c(C(F)(F)F)c1` [compound 72], the mortality [1] is reported as 100%.
`CCS(=O)(=O)c1cc(C(F)(F)F)ccc1C(=O)N(C)c1ccc(C(F)(F)F)c(Cl)c1` [compound 69] was tested, and the mortality [1] was 100%.
For `CCSc1cc(C(F)(F)F)ccc1C(=O)N(C)c1ccc(OC)cc1` [compound 62], the mortality [1] was 100%.
`CCS(=O)(=O)c1cc(C(F)(F)F)ccc1C(=O)Nc1ccc(OC(F)(F)F)cc1` [Intermediate Compound M6-9] was tested, and the controlling value (Aphis gossypii) was at least 90%.
`CCSc1cc(C(F)(F)F)ccc1C(=O)N(C)c1ccc(C)cc1` [compound 46] showed a mortality [1] of 100%.
With `CCSc1cc(C(F)(F)F)ccc1C(=O)N(C)c1ccc(C#N)cc1` [compound 66] the “death rate (mortality)” value (Plutella xylostella) was at least 80%.
`CCS(=O)(=O)c1cc(C(F)(F)F)ccc1C(=O)N(C)c1cc(F)cc(F)c1` [compound 15] was tested, and the mortality [1] was 100%.
Molecule `CCSc1cc(C(F)(F)F)ccc1C(=O)N(C)c1ccc(Br)c(C(F)(F)F)c1` [compound 55] has a mortality [2] of at least 90%.
`CCS(=O)(=O)c1cc(C(F)(F)F)ccc1C(=O)Nc1ccc(C(F)(F)C(F)(F)F)cc1` [Intermediate Compound M6-10] gave a mortality [1] of 100%.
With `CCSc1ccccc1C(=O)Nc1ccc(C(F)(F)C(F)(F)F)cc1` [Intermediate Compound M6-24] the “death rate (mortality)” value (Plutella xylostella) was at least 80%.
Work on `CCSc1cc(C(F)(F)F)ccc1C(=O)N(C)c1cccc(OC(F)(F)C(F)F)c1` [compound 59] yielded a mortality (Culex pipiens pallens) of at least 95%.
With `CCS(=O)(=O)c1cc(C(F)(F)F)ccc1C(=O)N(C)c1cc(C(F)(F)F)cc(C(F)(F)F)c1` [compound 13] the “death rate (mortality)” value (Plutella xylostella) was at least 80% and the mortality (Culex pipiens pallens) was at least 95%.
`CCSc1cc(C(F)(F)F)ccc1C(=O)N(C)c1ccc(Br)cc1` [compound 44] was tested, and the mortality (Culex pipiens pallens) was at least 95%.
`CCS(=O)(=O)c1cc(C(F)(F)F)ccc1C(=O)N(C)c1cc(F)c(C(F)(F)F)c(F)c1` [compound 86] was tested, and the “death rate (mortality)” value (Plutella xylostella) was at least 80% and the mortality [2] was at least 90%.
In the case of `CCOc1ccc(N(C)C(=O)c2ccc(C(F)(F)F)cc2S(=O)(=O)CC)cc1` [compound 81], the mortality [1] is reported as 100%.
With `CCS(=O)(=O)c1cc(C(F)(F)F)ccc1C(=O)N(C)c1cc(Cl)cc(Cl)c1` [compound 14] the “death rate (mortality)” value (Plutella xylostella) was at least 80%.
For `CCSc1cc(C(F)(F)F)ccc1C(=O)N(C)c1ccc(F)cc1` [compound 64], the mortality [1] was 100%.
`CCS(=O)(=O)c1cc(C(F)(F)F)ccc1C(=O)N(C)c1ccc(C(F)(F)F)c(C(F)(F)F)c1` [compound 85] showed a mortality [2] of at least 90%.
Molecule `CCSc1ccccc1C(=O)Nc1ccc(SC(F)(F)F)cc1` [Intermediate Compound M6-23] has a controlling value (Aphis gossypii) of at least 90%, a controlling value (Nilaparvata lugens) of at least 90% and a controlling value (Bemisia tabaci) of at least 90%.
Work on `CCSc1cc(C(F)(F)F)ccc1C(=O)N(C)c1ccc(Cl)c(C(F)(F)F)c1` [compound 54] yielded a mortality [2] of at least 90% and a mortality [1] of 100%.
With `CCS(=O)(=O)c1cc(C(F)(F)F)ccc1C(=O)Nc1ccc(SC(F)(F)F)cc1` [Intermediate Compound M6-11] the controlling value (Aphis gossypii) was at least 90% and the controlling value (Bemisia tabaci) was at least 90%.
`CCS(=O)(=O)c1cc(C(F)(F)F)ccc1C(=O)Nc1cc(C(F)(F)F)cc(C(F)(F)F)c1` [Intermediate Compound M6-12] gave a mortality (Culex pipiens pallens) of at least 95%.
Work on `CCS(=O)(=O)c1cc(C(F)(F)F)ccc1C(=O)Nc1ccc(C(F)(F)F)cc1` [Intermediate Compound M6-8] yielded a controlling value (Aphis gossypii) of at least 90%.

Source: US20150336881A1, “AMIDE COMPOUND AND USE THEREOF FOR PEST CONTROL” (Sumitomo Chemical Company, Limited, priority 2012, published 2015)
